# According to PubChem BioAssay AID445 (National Center for Advancing Translational Sciences (NCATS), 2006):
# This is one part of the list. Further columns of the screen follow, without active or inactive calls. Most of these compounds were active or inconclusive in the main read-out, so they are no random draw. Potencies come from curve fits of mixed quality, noted in brackets.
# Experiment: IkB Signaling
# Conditions: ABC-DLBCL IkBa-CBG/CBR dual luciferase ratio (green luciferase fused to IkBa over red control in OCI-Ly3 lymphoma cells), 4 h
# Outline: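 In this assay, an IκBα–CBG68 fusion accumulates when IKK-driven degradation is blocked; native CBR normalizes for cell number. OCI-Ly3 cells were treated 4 h with compound and doxycycline, then green and red light read after Chroma-Glo addition.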
# [1] = measured here: control luc red channel unless noted
structure (smiles),measurement,setting,value
COc1cc(-c2nnc(SCC(=O)c3cc(C)n(CC4CCCO4)c3C)o2)cc(OC)c1OC (stereo not drawn),AC50,[1],"31.6 µM [falling, single point]"
CCCCCN=Cc1c(C)[nH]n(-c2nc3ccccc3s2)c1=O,AC50,[1],"3.98 µM [falling, partial curve]"
O=C(c1ccc2c(c1)N(Cc1ccccc1F)C(=O)c1ccccc1S2(=O)=O)N1CCN(c2ccccn2)CC1,AC50,[1],"2.51 µM [falling, partial curve]"
OCCCN1c2ccccc2Nc2nnc(-c3ccccc3)cc21,AC50,[1],"7.94 µM [falling, partial curve]"
Cc1ccccc1NC(=O)c1c(C)oc2ccc(O)c(CN3CCOCC3)c12,AC50,[1],"25.1 µM [falling, single point]"
CCc1ccc2[nH]c(=O)c(C(c3nnnn3CCOC)N3CCN(c4ccc(F)cc4)CC3)cc2c1 (stereo not drawn),AC50,[1],"25.1 µM [falling, single point]"
Fc1ccc(C(c2ccc(F)cc2)N2CCN(C/C=C\c3ccccc3)CC2)cc1,AC50,[1],"31.6 µM [falling, partial curve]"
O=C(Nc1ccccc1Cl)c1sc2cccc(Cl)c2c1Cl,AC50,[1],"0.0794 µM [rising, full curve, poor fit]"
Cc1ccc(N(CC(=O)Nc2ccc(Cl)cc2)S(=O)(=O)c2cccc3nonc23)cc1,AC50,[1],"15.8 µM [falling, partial curve]"
CN(C)c1ccc(CNC(=O)Cn2c(=O)oc3cc(S(=O)(=O)N4CCCCCC4)ccc32)cc1,AC50,[1],"25.1 µM [rising, partial curve]"
COc1cc(C(=O)NCc2nnc(SCC(=O)Nc3cc(C)cc(C)c3)o2)cc(OC)c1OC,AC50,[1],"20 µM [falling, partial curve]"
COc1ccc(-n2c(=O)[nH]c3cc(C(=O)NCCc4ccccc4)ccc3c2=O)cc1OC,AC50,[1],"31.6 µM [falling, partial curve]"
O=C(COc1ccccc1)Nc1ccc2nc(SCC(=O)N3CCOCC3)sc2c1,AC50,[1],"25.1 µM [falling, single point]"
CCCn1c2ccccc2c2nnc(SCC(=O)Nc3cccc(C(C)=O)c3)nc21,AC50,[1],"3.16 µM [falling, single point]"
Cc1ccc(NC(=O)c2cnn3c2NC(c2ccccc2)=CC3c2ccccc2)cc1 (stereo not drawn),AC50,[1],"31.6 µM [falling, partial curve]"
CCC(Sc1nnc(C)n2c1cc1occc12)C(=O)Nc1ccccc1OC (stereo not drawn),AC50,[1],"20 µM [falling, single point]"
CCN(Cc1ccccc1)C(=O)c1cnn(-c2ccc(F)cc2)c1-n1cccc1,AC50,[1],"25.1 µM [falling, partial curve]"
Nc1nc(CN2CCN(c3ccccn3)CC2)nc(Nc2ccc(Cl)cc2)n1,AC50,[1],"12.6 µM [falling, partial curve]"
CCCSc1nc2c([nH]c3ccccc32)c(=O)n1C,AC50,[1],"1.26 µM [rising, full curve]"
COc1ccccc1CNC(=O)CSC1=Nc2ccccc2N=C(c2ccc(F)cc2)C1,AC50,[1],"7.94 µM [falling, partial curve]"
CC(C)c1nc2ccc(C(=O)Nc3ccccc3F)cc2o1,AC50,[1],"10 µM [falling, partial curve]"
COc1ccc(NC(=O)CCCn2nc(C)c3sc4ccccc4c3c2=O)cc1,AC50,[1],"25.1 µM [falling, single point]"
COc1ccc(-c2nc(CSCC(=O)N3CCN(c4ccc(F)cc4)CC3)c(C)o2)cc1,AC50,[1],"25.1 µM [falling, single point]"
Fc1ccc(C2=CC(c3ccc(F)cc3)n3c(nc4ccccc43)N2)cc1 (stereo not drawn),AC50,[1],"15.8 µM [falling, partial curve]"
CCC(C)Nc1ncnc2c1cnn2-c1ccc(F)cc1 (stereo not drawn),AC50,[1],"10 µM [falling, partial curve]"
Cc1cc(C(=O)Nc2ccc(-n3c(C)nc4ccccc4c3=O)cc2)ccc1[N+](=O)[O-],AC50,[1],"0.0251 µM [rising, full curve, poor fit]"
Cc1nn(C)cc1CNC(=O)c1cnn2c1NC(c1ccc(Br)cc1)CC2C(F)(F)F (stereo not drawn),AC50,[1],"25.1 µM [falling, partial curve]"
O=C(CSc1nnc(-c2ccc(F)cc2)o1)N1CCCc2ccccc21,AC50,[1],"39.8 µM [falling, single point]"
O=C(CCC1N=C2c3ccccc3N=C(SCc3ccc(Cl)cc3)N2C1=O)N1CCN(c2ccccc2)CC1 (stereo not drawn),AC50,[1],"39.8 µM [falling, single point]"
COc1ccc(C2C=C(c3ccc(Cl)c(Cl)c3)Nc3ncnn32)cc1 (stereo not drawn),AC50,[1],"20 µM [falling, single point]"
COC(=O)c1sccc1S(=O)(=O)N(CC(=O)NCc1ccc(C)cc1)c1ccc(C)cc1,AC50,[1],"25.1 µM [falling, partial curve]"
Cc1cc2occ(CC(=O)NC3=NCCS3)c2cc1C(C)C,AC50,[1],"25.1 µM [falling, partial curve]"
Cc1csc(NC(=O)c2sc3nc(-c4cccs4)ccc3c2N)n1,AC50,[1],"3.98 µM [falling, full curve]"
Cc1ccccc1OCCCN1C(=O)C(=O)c2cccc(C)c21,AC50,[1],"39.8 µM [rising, partial curve] [measured here: IkB-luc green channel]"
Cn1nnnc1SCC(=O)Nc1ccc(Oc2ccccc2)cc1,AC50,[1],"3.98 µM [falling, partial curve]"
Cc1ccccc1-c1nnn(CC(=O)Nc2sc3c(c2C#N)CCC(C(C)(C)C)C3)n1 (stereo not drawn),AC50,[1],"10 µM [falling, partial curve]"
Cc1ccc(C)c(SCC(=O)Nc2nnc(-c3ccccc3)o2)c1,AC50,[1],"6.31 µM [rising, single point] [measured here: IkB-luc green channel]"
Cc1ccc2ncc(C(=O)Nc3ccc(OC(F)(F)F)cc3)c(=O)n2c1,AC50,[1],"3.16 µM [rising, partial curve, poor fit]"
CCOC(=O)c1c(NC(=O)c2nc(S(C)(=O)=O)ncc2Cl)sc(C(C)=O)c1C,AC50,[1],"3.16 µM [falling, full curve]"
O=C1CCCc2cc(S(=O)(=O)N3CCCC(C(=O)NCc4ccc(Cl)cc4)C3)ccc2N1 (stereo not drawn),AC50,[1],"25.1 µM [falling, single point]"
O=C(NCC(c1ccc(Cl)cc1)N1CCOCC1)c1ccccc1F (stereo not drawn),AC50,[1],"15.8 µM [falling, single point]"
Cc1ccc(C)c2[nH]c(=O)c(C(c3nnnn3Cc3ccco3)N3CCc4ccccc4C3)cc12 (stereo not drawn),AC50,[1],"39.8 µM [rising, single point] [measured here: IkB-luc green channel]"
CCOc1cc(C2c3c(n[nH]c3C)C(=O)N2c2ccc(Br)cc2)ccc1O (stereo not drawn),AC50,[1],"12.6 µM [falling, partial curve]"
CCOC(=O)C1CCCN(C(=O)c2cc(Nc3ccc(OC)c(OC)c3)nc3ccccc23)C1 (stereo not drawn),AC50,[1],"20 µM [falling, partial curve]"
CCCn1c2ccccc2c2cnn(CC(=O)N3CCN(c4ccccc4)CC3)c(=O)c21,AC50,[1],"39.8 µM [falling, single point]"
CCOc1ccc(NC(=O)c2ncoc2-c2ccco2)cc1,AC50,[1],"10 µM [falling, partial curve]"
O=C(Cn1c(=O)nc(-c2ccccc2)c2cc(Cl)ccc21)Nc1ccc(F)c(Cl)c1,AC50,[1],"12.6 µM [falling, partial curve]"
COC(=O)c1sc(NC(=O)COc2ccccc2OC)nc1C,AC50,[1],"12.6 µM [falling, partial curve]"
CCOC(=O)c1[nH]c2ccccc2c1NC(=O)c1ccc(Br)cc1,AC50,[1],"0.398 µM [rising, full curve, poor fit]"
COc1cccc(-c2nn(C)c3sc(C(=O)N4CCN(c5ccccn5)CC4)cc23)c1,AC50,[1],"6.31 µM [falling, full curve]"
COc1cccc(CNC(=O)C2CCN(S(=O)(=O)c3ccc4c(c3)CCCN4C(C)=O)CC2)c1,AC50,[1],"0.0251 µM [rising, full curve, poor fit]"
CCn1c(=O)c(C(=O)NCc2ccc(OC)c(OC)c2)c(O)c2ccccc21,AC50,[1],"31.6 µM [falling, single point]"
CSCCOC(=O)c1[nH]c2c(c1C)C(=O)CC(c1ccco1)C2 (stereo not drawn),AC50,measured here: IkB-luc green channel,"2 µM [rising, full curve]"
same,AC50,measured here: control luc red channel,"0.631 µM [rising, full curve]"
CCOc1ccc(-c2nc3c(c(SCC(=O)N4CCCCC4)n2)Cc2cccc(OC)c2O3)cc1,AC50,[1],"25.1 µM [falling, partial curve]"
CCCCN1C(=O)C(O)(CC(=O)c2ccc(C(C)(C)C)cc2)c2ccccc21 (stereo not drawn),AC50,[1],"25.1 µM [falling, partial curve]"
Cc1ccc(OCC(=O)Nc2ccc3nc(SCC(=O)N4CCOCC4)sc3c2)cc1,AC50,[1],"12.6 µM [falling, partial curve]"
CCCCNC(=O)CCCn1c(=O)c2ccccc2n(Cc2cccc(Cl)c2)c1=O,AC50,[1],"5.01 µM [rising, single point]"
Cn1c(CN2CCCCC2)nc2cc(NC(=O)c3ccccc3Cl)ccc21,AC50,[1],"25.1 µM [falling, partial curve]"
O=C(NC1CCCC1)c1cc(Nc2cccc(C(F)(F)F)c2)nc2ccccc12,AC50,[1],"1.26 µM [falling, full curve]"
CC(C)(C)C1CCc2onc(C(=O)Nc3cccnc3)c2C1 (stereo not drawn),AC50,[1],"31.6 µM [falling, partial curve]"
CCC(=O)N1CCc2cc(Br)cc(S(=O)(=O)CCC(=O)N3CCN(c4ccccc4F)CC3)c21,AC50,[1],"31.6 µM [falling, single point]"
CCOC(=O)c1cccc(NS(=O)(=O)c2ccc(-c3cnc(C4CC4)o3)cc2)c1,AC50,[1],"39.8 µM [falling, single point]"

# Taken from the results shown (17 entries):
structure (smiles),measurement,setting,value
CN(C)c1ccc(CNC(=O)Cn2c(=O)oc3cc(S(=O)(=O)N4CCCCCC4)ccc32)cc1,AC50,[1],"25.1 µM [rising, partial curve]"
COc1cc(C(=O)NCc2nnc(SCC(=O)Nc3cc(C)cc(C)c3)o2)cc(OC)c1OC,AC50,[1],"20 µM [falling, partial curve]"
COc1ccc(-n2c(=O)[nH]c3cc(C(=O)NCCc4ccccc4)ccc3c2=O)cc1OC,AC50,[1],"31.6 µM [falling, partial curve]"
O=C(COc1ccccc1)Nc1ccc2nc(SCC(=O)N3CCOCC3)sc2c1,AC50,[1],"25.1 µM [falling, single point]"
CCCn1c2ccccc2c2nnc(SCC(=O)Nc3cccc(C(C)=O)c3)nc21,AC50,[1],"3.16 µM [falling, single point]"
Cc1ccc(NC(=O)c2cnn3c2NC(c2ccccc2)=CC3c2ccccc2)cc1 (stereo not drawn),AC50,[1],"31.6 µM [falling, partial curve]"
CCC(Sc1nnc(C)n2c1cc1occc12)C(=O)Nc1ccccc1OC (stereo not drawn),AC50,[1],"20 µM [falling, single point]"
CCN(Cc1ccccc1)C(=O)c1cnn(-c2ccc(F)cc2)c1-n1cccc1,AC50,[1],"25.1 µM [falling, partial curve]"
Nc1nc(CN2CCN(c3ccccn3)CC2)nc(Nc2ccc(Cl)cc2)n1,AC50,[1],"12.6 µM [falling, partial curve]"
CCCSc1nc2c([nH]c3ccccc32)c(=O)n1C,AC50,[1],"1.26 µM [rising, full curve]"
COc1ccccc1CNC(=O)CSC1=Nc2ccccc2N=C(c2ccc(F)cc2)C1,AC50,[1],"7.94 µM [falling, partial curve]"
CC(C)c1nc2ccc(C(=O)Nc3ccccc3F)cc2o1,AC50,[1],"10 µM [falling, partial curve]"
COc1ccc(NC(=O)CCCn2nc(C)c3sc4ccccc4c3c2=O)cc1,AC50,[1],"25.1 µM [falling, single point]"
COc1ccc(-c2nc(CSCC(=O)N3CCN(c4ccc(F)cc4)CC3)c(C)o2)cc1,AC50,[1],"25.1 µM [falling, single point]"
Fc1ccc(C2=CC(c3ccc(F)cc3)n3c(nc4ccccc43)N2)cc1 (stereo not drawn),AC50,[1],"15.8 µM [falling, partial curve]"
CCC(C)Nc1ncnc2c1cnn2-c1ccc(F)cc1 (stereo not drawn),AC50,[1],"10 µM [falling, partial curve]"
Cc1cc(C(=O)Nc2ccc(-n3c(C)nc4ccccc4c3=O)cc2)ccc1[N+](=O)[O-],AC50,[1],"0.0251 µM [rising, full curve, poor fit]"
